Our source for the log2 fold change values is the supplement of paper PMC10849652.

Chains of the proteins cited; added tags and fusions are not shown. Lines headed by an entry give the natural chain unless they say otherwise; changes in a name come on top.
UniProt Q9H061: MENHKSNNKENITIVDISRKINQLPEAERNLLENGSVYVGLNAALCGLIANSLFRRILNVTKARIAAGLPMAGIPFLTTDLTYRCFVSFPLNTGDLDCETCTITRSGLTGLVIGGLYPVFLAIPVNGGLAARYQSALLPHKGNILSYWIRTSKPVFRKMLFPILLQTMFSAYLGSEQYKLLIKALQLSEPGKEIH
UniProt Q9NYL9: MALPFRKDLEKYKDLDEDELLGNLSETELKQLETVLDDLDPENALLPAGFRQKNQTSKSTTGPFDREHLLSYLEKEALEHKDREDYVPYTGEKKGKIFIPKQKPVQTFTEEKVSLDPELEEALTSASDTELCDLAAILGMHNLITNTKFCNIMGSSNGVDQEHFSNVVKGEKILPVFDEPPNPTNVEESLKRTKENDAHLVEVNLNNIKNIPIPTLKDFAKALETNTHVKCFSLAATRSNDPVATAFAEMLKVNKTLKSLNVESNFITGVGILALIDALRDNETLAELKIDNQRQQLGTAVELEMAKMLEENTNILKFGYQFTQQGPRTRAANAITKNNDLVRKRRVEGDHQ
UniProt P62328: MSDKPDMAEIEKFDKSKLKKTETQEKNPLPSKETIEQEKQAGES
UniProt Q9Y3Q3: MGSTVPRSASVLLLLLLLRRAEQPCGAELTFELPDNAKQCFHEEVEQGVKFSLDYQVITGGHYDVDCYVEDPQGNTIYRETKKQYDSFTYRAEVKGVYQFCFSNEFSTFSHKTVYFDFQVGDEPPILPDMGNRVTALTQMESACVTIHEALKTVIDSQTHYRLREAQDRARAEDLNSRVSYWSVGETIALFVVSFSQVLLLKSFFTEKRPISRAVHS
UniProt Q9ULS5: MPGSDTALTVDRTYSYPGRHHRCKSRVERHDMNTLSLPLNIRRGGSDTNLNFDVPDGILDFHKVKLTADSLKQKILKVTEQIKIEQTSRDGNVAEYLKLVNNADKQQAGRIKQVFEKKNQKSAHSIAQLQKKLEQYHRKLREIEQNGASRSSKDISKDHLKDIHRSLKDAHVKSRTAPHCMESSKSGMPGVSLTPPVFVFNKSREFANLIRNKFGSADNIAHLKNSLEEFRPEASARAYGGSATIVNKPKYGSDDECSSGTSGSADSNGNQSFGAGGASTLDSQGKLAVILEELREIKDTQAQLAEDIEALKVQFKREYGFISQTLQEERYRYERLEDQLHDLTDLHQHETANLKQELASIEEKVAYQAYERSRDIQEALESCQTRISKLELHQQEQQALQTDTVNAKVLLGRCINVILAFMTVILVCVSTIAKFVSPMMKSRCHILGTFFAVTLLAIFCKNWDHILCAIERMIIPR
UniProt Q9Y3A6: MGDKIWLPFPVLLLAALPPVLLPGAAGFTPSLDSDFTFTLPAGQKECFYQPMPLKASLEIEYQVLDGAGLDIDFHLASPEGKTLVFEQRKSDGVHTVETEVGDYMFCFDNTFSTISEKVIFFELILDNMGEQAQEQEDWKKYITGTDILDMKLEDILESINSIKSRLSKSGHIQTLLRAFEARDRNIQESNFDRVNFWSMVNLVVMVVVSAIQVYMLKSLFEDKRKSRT

The other results are listed elsewhere or left out.

Compound in this test: c1cn2cc(-c3ccc4cn[nH]c4c3)nc(Nc3ccc(N4CCOCC4)cc3)c2n1 [entospletinib]
Put plainly: log2 fold change, soluble protein after heating vs DMSO (PISA); higher = thermal stabilisation; K562 cells, 10 uM, 30 min; active = over 0.2 and 3.5 SD of the protein, either way, in both replicates (recomputed). The procedure, abridged:
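Values are thermal stability changes relative to control samples and are taken from duplicates. They are stated as log2 fold changes. Before quantification by TMTpro 16plex LC-MS/MS with equalised channel sums, K562 cells at 2×10^6 cells/mL were treated with 10 μM compound for 30 min, heated in aliquots for 3 min across 48°C-58°C, pooled, extracted in PBS with 0.5% NP-40 at 4°C, and centrifuged at 21,000xg for 90 min to give the soluble supernatant.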
For TMEM126A (UniProt Q9H061), the log2 fold change was inactive: 0.023.

On to TMOD3 (UniProt Q9NYL9), for which the log2 fold change was inactive: 0.011. Consider TMSB4X (UniProt P62328), for which the log2 fold change was inactive: 0.21. With TMED3 (UniProt Q9Y3Q3), the log2 fold change is inactive: -0.08.

For the target TMCC3 (UniProt Q9ULS5), the log2 fold change is inactive: -0.241. Take TMED5 (UniProt Q9Y3A6): the log2 fold change is inactive: -0.027.
